Patent US11072583B2, “Indole (sulfomyl) n-hydroxy benzamide derivatives as selective HDAC inhibitors” (COUNCIL OF SCIENTIFIC & INDUSTRIAL RESEARCH, priority 2017, dated 2021)

Columns and labels:
Type in all cases: cell-based, human
[1] = tested on: MCF-7 (Breast cancer cell line); test: Anti-proliferative assay (Cell Titer-Glo), MCF-7; details: Table 1, reference compounds; read-out: IC50 MCF-7 cells
Method: (§1) Cell culture & Reagents: All cell lines, used for the anti-proliferative screen, were obtained from American Type Culture Collection (ATCC). HeLa (Cervical cancer cell line), MCF-7 (Breast cancer cell line) and DU-145 (Prostate cancer cell line) were cultured in Dulbecco's modified Eagle's medium (DMEM, GIBCO), containing 10% fetal bovine serum (FBS; Life Technologies), penicillin and streptomycin (10,000 U/mL), at 37° C. and in 5% CO2. Cell Titer-Glo® Luminescent Cell Viability Assay kit (Cat No. G7573) was purchased from Promega to determine the number of viable cells in culture based on quantitation of the ATP present, which signals the presence of metabolically active cells.
(§2) Anti-Proliferative assay: For anti-proliferative screening, 2500 cells per well (For HeLa and DU-145 cell lines) and 5000 cells per well (for MCF-7 cell line) numbers of cells were seeded in a white opaque plate and incubated for 24 Hrs in 5% CO2 incubator at 37° C. […] After incubating at room temperature for 30 minutes, luminescence was captured using luminescence plate reader (EnVision® Multilabel Plate Reader from Perkin Elmer). Generated data was exported to the excel file and data was analyzed using Graph Pad Prism to calculate IC50 value of the unknown inhibitor. […]

[2] = tested on: SKOV3 (Ovarian cancer cells); test: Anti-proliferative assay, SKOV3; details: Table 1, reference compounds
Method: as §1, §2

[3] = tested on: HeLa (Cervical cancer cell line); test: Anti-proliferative assay (Cell Titer-Glo), HeLa; details: Table 1, reference compounds; read-out: IC50 HeLa cells
Method: as §1, §2

O=C(CCCCCCC(=O)Nc1ccccc1)NO [SAHA]
IC50 [1]: 613 nM | IC50 [2]: 1400 nM | IC50 [3]: 2390 nM
